According to US20220387608A1 (Bayer Aktiengesellschaft, priority 2019, published 2022):

Test: general procedure: Fmoc solid-phase peptide synthesis; NovaSyn TGR R resin (Novabiochem); Oxyma/DIC
Conditions: whole synthesis; for final HPLC purity: 220 nm, scale of the general procedure 15 μmol
[1] = scale 15 μmol, side-chain lactam ring

Substance	final HPLC purity	isolated mass (scale 15 μmol)	isolated yield (scale 15 μmol)	isolated mass (scale 7.5 μmol)	isolated yield (scale 7.5 μmol)	also measured
H-GGC*RFGTC*TVQKLAHQIYQFT-OEG(12)-DNVAPRSKISPQGY-NH2	≥95%	1.8 mg	3%	–	–	–
H-GGC*RFGTC*TVQKLAHQIYQFT-OEG(13)-DNVAPRSKISPQGY-NH2	≥95%	–	–	6.0 mg	20%	–
H-GGC*RFGTC*TVQKLAHQIYQFT-OEG(16)-NVAPRSKISPQGY-NH2	≥95%	–	–	5.4 mg	18%	–
H-GGC*RFGTC*TVQKLAHQIYQFT-OEG(19)-VAPRSKISPQGY-NH2	≥95%	–	–	6.9 mg	23%	–
H-GGC*RFGTC*TVQKLAHQIYQFTD-OEG(13)-NVAPRSKISPQGY-NH2	≥95%	–	–	2.4 mg	8%	–
H-GGC*RFGTC*TVQKLAHQIYQFTD-OEG(16)-VAPRSKISPQGY-NH2	≥95%	–	–	3.6 mg	12%	–
H-GGC*RFGTC*TVQKLAHQIYQFTD-OEG(19)-APRSKISPQGY-NH2	≥95%	–	–	0.7 mg	2%	–
H-GGC*RFGTC*TVQKLAHQIYQFTDKDKDNVAPD+SKIK+PQGY-NH2	≥95%	3.9 mg	6%	–	–	–
H-GGC*RFGTC*TVQKLAHQIYQFTDKDKDNVAPE+SKIK+PQGY-NH2	≥95%	6.0 mg	9%	–	–	–
H-GGC*RFGTC*TVQKLAHQIYQFTDKDKDNVAPK+SKID+PQGY-NH2	≥95%	5.1 mg	8%	–	–	–
H-GGC*RFGTC*TVQKLAHQIYQFTDKDKDNVAPK+SKIE+PQGY-NH2	≥95%	4.5 mg	7%	–	–	–
H-K(ODD)-G-Dpr+-RFGTE+TVQKLAHQIYQFTDKDKDNVAPRSKISPQGY-NH2	–	–	–	–	–	final HPLC purity (side-chain lactam ring): ≥95%; isolated mass [1]: 1.4 mg; isolated yield [1]: 1.6%
H-K(ODD)-G-Dpr+^1-RFGTE+^1TVQKLAHQIYQFT-OEG(13)-DNVAPK+^2SKID+^2PQGY-NH2	≥94%	–	–	–	–	isolated mass (scale 2×15 μmol): 2.1 mg; isolated yield (scale 2×15 μmol): 1.2%
H-K(ODD)-G-Dpr+^1-RFGTE+^1TVQKLAHQIYQFTDKDKDNVAPK+^2SKID+^2PQGY-	≥95%	–	–	–	–	isolated mass (scale 2×15 μmol): 2.1 mg; isolated yield (scale 2×15 μmol): 1.2%
H-K(ODD)-GC*RFGTC*TVQKLAHQIYQFT-OEG(13)-DNVAPK+SKID+PQGY-NH2	≥95%	1.7 mg	3%	–	–	–
H-K(ODD)-GC*RFGTC*TVQKLAHQIYQFTDKDKDNVAPK+SKID+PQGY-NH2	≥95%	1.0 mg	1%	–	–	–
H-K(ODD)-GC*RFGTC*TVQKLAHQIYQFTDKDKDNVAPRSKISPQGY-NH2	≥95%	3.8 mg	5%	–	–	–
